Some of the results follow.
Assays:
Assay in all cases: log2 fold change, soluble protein after heating vs DMSO (PISA); higher = thermal stabilisation; K562 cells, 10 uM, 30 min; active = over 0.2 and 3.5 SD of the protein, either way, in both replicates (recomputed)
[1] = compound: CC1=C(C=C(C=C1)NC(=O)C2=CC(=CC=C2)C(C)(C)C#N)NC3=CC4=C(C=C3)N=CN(C4=O)C
Procedure, shortened: (§1)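 K562 cells at 2×10^6 cells/mL were exposed to 10 μM compound for 30 min, then aliquots were heated for 3 min across 48°C-58°C, pooled, and extracted in PBS containing 0.5% NP-40 at 4°C. The supernatant after 21,000xg for 90 min was taken as soluble protein and measured by TMTpro 16plex LC-MS/MS with channel sums equalised. Thermal stability is reported relative to control samples, with values from duplicates. Fold changes are given on a log2 scale.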

Amino acid sequences for entries named in this document (tags omitted). A change or cut given only in a name is not applied to a line headed by its entry.
UniProt Q9Y3I1: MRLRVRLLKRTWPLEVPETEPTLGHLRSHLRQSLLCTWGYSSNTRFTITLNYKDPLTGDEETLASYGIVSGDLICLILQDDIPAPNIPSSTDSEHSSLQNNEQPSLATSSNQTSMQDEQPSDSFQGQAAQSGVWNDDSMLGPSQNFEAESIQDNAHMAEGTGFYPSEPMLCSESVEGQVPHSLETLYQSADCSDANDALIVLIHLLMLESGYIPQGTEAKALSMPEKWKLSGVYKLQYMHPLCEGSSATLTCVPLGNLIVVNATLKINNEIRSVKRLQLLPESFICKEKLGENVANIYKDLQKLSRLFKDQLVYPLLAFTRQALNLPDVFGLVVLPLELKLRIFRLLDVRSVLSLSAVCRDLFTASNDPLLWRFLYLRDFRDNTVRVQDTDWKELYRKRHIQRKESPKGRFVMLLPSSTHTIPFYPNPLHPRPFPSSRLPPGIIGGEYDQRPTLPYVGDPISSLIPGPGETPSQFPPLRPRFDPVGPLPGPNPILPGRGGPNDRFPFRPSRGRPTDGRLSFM
UniProt Q9NYY8: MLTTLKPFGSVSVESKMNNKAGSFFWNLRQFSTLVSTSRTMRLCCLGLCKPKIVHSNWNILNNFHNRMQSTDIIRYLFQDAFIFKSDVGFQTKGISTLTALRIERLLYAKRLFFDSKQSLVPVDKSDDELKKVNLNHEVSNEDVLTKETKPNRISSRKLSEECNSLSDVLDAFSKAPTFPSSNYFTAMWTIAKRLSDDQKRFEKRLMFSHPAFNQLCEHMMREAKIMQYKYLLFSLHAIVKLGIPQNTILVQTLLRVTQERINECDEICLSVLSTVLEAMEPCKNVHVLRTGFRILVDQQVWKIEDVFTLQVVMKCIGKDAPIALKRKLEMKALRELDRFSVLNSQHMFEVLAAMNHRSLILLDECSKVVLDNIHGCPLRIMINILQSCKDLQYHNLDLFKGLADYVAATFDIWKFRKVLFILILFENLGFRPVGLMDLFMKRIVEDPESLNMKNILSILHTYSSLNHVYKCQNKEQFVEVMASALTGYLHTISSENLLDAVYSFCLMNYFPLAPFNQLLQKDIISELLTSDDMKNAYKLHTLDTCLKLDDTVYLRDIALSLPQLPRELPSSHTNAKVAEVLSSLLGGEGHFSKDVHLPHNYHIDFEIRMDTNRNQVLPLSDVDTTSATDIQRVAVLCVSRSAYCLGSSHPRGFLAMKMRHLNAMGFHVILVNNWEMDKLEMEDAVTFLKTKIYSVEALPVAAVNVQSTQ
UniProt Q9UKT5: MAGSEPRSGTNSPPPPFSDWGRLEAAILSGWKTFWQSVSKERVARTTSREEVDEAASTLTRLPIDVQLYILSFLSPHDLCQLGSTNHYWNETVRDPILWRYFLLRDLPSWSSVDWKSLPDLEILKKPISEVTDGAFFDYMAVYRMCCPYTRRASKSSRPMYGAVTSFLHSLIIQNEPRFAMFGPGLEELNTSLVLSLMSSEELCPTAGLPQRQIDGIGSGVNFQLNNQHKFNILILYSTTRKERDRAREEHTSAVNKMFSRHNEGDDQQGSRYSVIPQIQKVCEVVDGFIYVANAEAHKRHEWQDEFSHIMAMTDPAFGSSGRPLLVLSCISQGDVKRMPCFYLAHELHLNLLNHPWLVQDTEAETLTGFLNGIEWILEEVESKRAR
UniProt Q13643: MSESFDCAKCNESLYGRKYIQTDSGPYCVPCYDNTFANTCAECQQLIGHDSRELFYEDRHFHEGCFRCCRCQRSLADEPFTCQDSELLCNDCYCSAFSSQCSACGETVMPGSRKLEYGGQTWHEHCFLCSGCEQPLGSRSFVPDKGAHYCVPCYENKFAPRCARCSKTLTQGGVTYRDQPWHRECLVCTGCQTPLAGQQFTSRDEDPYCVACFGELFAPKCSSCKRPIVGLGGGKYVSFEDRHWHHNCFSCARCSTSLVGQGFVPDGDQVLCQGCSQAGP
UniProt Q9UBU6: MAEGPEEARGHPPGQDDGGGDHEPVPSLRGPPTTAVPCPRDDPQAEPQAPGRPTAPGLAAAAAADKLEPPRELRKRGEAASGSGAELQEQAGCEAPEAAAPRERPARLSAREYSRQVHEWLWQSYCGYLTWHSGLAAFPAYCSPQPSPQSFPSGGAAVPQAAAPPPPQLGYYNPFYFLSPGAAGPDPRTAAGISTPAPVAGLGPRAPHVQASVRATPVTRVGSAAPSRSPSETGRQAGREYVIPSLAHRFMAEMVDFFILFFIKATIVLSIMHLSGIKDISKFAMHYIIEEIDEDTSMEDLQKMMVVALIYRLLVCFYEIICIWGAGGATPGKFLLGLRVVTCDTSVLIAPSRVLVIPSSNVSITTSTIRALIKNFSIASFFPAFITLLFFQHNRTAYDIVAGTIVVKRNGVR
UniProt Q9H4H8: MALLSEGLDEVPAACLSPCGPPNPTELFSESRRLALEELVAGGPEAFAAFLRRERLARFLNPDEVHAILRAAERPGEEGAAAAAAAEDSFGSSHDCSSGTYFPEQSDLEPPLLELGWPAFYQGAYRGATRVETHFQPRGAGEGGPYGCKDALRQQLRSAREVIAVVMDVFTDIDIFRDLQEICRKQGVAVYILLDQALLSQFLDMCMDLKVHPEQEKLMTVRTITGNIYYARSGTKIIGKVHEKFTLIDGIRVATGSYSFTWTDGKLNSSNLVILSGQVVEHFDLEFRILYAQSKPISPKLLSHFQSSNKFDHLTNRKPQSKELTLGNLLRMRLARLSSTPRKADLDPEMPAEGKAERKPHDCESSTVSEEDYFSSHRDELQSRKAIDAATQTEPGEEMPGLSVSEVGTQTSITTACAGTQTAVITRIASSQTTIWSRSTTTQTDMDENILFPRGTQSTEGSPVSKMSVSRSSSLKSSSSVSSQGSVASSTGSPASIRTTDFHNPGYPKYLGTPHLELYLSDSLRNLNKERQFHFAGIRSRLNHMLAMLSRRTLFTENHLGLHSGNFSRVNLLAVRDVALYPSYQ
UniProt Q8N8J7: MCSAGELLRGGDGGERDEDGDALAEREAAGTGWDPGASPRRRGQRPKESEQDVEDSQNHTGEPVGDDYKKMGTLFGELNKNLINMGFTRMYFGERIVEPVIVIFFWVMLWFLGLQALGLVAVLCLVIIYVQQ
UniProt Q5JUQ0: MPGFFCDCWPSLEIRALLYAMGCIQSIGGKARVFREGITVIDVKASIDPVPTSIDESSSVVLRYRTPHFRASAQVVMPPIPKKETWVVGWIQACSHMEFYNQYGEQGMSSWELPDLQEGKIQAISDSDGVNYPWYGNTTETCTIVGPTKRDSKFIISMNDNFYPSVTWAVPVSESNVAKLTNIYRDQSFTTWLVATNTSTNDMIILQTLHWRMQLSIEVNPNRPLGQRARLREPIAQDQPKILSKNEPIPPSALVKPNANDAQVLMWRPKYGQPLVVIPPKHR
UniProt Q9H4M3: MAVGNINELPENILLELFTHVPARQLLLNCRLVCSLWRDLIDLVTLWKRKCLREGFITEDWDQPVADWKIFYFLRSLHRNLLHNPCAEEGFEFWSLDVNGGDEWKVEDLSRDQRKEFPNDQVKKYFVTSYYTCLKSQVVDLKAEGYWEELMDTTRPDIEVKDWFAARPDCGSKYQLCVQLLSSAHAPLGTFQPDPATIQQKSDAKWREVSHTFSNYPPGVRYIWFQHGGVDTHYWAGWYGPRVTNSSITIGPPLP
UniProt Q86UY5: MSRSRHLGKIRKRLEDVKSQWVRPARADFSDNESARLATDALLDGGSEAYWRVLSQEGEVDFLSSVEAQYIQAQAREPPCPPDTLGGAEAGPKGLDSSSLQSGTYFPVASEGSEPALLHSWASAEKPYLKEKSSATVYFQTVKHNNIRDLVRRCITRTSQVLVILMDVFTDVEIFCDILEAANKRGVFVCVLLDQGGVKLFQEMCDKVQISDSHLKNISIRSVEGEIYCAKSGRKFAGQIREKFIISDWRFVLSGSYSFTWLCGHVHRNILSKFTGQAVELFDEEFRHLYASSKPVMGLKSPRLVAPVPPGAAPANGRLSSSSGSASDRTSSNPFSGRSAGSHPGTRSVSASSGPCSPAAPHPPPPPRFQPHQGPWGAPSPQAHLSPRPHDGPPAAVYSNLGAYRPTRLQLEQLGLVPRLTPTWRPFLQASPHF
UniProt P14324: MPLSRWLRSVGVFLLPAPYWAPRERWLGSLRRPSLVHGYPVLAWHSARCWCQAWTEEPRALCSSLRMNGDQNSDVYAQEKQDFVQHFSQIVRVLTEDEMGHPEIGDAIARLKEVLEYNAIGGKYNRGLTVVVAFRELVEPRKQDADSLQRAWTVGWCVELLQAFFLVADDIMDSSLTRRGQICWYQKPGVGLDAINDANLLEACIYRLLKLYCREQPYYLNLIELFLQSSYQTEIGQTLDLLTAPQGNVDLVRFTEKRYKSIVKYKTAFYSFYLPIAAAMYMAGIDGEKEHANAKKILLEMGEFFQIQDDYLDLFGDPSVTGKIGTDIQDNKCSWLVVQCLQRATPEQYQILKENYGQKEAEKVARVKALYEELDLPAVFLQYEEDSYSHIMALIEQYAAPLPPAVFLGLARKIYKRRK
UniProt Q9Y680: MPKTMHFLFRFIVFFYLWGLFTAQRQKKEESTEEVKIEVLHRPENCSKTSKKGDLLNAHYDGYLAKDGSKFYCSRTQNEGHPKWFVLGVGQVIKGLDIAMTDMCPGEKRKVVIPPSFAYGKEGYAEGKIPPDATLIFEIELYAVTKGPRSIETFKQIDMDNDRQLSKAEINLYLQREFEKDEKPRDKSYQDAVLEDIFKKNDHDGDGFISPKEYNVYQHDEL
UniProt Q14320: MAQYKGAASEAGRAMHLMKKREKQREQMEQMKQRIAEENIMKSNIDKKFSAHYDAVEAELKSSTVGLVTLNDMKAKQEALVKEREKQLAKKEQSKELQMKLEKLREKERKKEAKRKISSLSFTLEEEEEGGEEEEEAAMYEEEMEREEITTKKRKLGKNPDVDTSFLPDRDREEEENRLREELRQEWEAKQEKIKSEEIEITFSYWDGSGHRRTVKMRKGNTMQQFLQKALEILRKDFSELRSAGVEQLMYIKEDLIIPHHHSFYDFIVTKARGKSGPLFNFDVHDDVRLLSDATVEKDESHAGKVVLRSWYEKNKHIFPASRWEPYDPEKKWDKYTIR
UniProt Q9H9S5: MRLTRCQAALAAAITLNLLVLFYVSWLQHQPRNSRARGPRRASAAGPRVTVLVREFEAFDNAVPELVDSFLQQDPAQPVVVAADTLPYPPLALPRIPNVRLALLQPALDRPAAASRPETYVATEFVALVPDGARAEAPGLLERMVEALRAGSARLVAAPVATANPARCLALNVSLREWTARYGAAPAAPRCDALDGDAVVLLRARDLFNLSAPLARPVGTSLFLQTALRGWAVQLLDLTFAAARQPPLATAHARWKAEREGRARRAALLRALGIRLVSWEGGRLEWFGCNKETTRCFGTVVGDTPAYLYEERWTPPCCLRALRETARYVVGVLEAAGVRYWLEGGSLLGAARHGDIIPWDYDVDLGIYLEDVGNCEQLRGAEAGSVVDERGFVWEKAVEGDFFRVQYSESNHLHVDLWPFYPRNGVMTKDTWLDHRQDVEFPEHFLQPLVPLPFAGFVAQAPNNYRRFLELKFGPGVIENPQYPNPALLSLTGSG
UniProt Q9Y324: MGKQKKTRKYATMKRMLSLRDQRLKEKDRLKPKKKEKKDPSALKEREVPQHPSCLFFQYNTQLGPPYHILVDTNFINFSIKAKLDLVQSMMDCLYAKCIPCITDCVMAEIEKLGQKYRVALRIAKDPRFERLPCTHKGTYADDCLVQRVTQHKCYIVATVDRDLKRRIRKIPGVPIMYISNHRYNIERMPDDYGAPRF
UniProt Q9UKT8: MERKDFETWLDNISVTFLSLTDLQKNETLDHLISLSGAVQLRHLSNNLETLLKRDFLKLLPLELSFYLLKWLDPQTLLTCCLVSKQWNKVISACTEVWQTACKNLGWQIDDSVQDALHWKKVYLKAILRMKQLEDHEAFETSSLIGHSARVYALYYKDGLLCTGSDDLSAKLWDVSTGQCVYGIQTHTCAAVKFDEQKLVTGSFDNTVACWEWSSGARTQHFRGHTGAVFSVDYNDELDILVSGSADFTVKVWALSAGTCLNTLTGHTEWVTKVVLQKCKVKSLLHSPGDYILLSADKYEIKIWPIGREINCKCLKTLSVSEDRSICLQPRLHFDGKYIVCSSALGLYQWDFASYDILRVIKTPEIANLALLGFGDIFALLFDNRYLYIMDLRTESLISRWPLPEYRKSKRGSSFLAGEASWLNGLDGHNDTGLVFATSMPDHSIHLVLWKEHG
UniProt Q9UK99: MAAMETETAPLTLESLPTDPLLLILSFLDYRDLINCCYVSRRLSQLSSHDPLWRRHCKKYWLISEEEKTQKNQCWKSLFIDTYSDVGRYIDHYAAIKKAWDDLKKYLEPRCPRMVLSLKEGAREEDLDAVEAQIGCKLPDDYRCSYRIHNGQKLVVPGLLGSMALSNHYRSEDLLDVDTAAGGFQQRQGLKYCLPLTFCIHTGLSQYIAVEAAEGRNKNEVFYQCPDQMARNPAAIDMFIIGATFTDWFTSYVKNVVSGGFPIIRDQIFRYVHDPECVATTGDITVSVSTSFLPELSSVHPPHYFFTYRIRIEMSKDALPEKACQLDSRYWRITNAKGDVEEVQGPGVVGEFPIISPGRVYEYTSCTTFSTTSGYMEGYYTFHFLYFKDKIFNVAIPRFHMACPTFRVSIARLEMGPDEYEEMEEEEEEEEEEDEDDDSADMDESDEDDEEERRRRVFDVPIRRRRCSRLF

[2] = compound: CC1=C(C=C(C=C1)NC(=O)C2=CC(=CC=C2)N(C)C)NC(=O)C3=CC=C(C=C3)O
Procedure, shortened: as §1

[3] = compound: CC1=CC=C(C=C1)SC2=C3C=C(SC3=CN=C2)C(=O)N
Procedure, shortened: as §1

[4] = compound: CC1=NC(=CC=C1)C2=C(N=C(N2)C(C)(C)C)C3=CC4=NC=CN=C4C=C3
Procedure, shortened: as §1

[5] = compound: CCCCN(Cc1ccc(C(=O)NO)cc1)C(=O)Nc1ccccc1 [Nexturastat A]
Procedure, shortened: as §1

[6] = compound: CCCS(=O)(=O)Nc1ccc(F)c(C(=O)c2c[nH]c3ncc(-c4ccc(Cl)cc4)cc23)c1F [vemurafenib]
Procedure, shortened: as §1

[7] = compound: CCCS(=O)(=O)Nc1ccc(F)c(C(=O)c2c[nH]c3ncc(Cl)cc23)c1F
Procedure, shortened: as §1

[8] = compound: CCCc1cc(C)[nH]c(=O)c1CNC(=O)c1cc(-c2ccnc(N3CCN(C)CC3)c2)cc2c1cnn2C(C)C
Procedure, shortened: as §1

[9] = compound: CCN(CC)Cc1ccc2cc(COC(=O)Nc3ccc(C(=O)NO)cc3)ccc2c1 [givinostat]
Procedure, shortened: as §1

[10] = compound: CCN(CCCOc1ccc2c(Nc3cc(CC(=O)Nc4cccc(F)c4)[nH]n3)ncnc2c1)CCOP(=O)(O)O [barasertib]
Procedure, shortened: as §1

[11] = compound: CC[C@@H]1C(=O)N(C)c2cnc(Nc3ccc(C(=O)NC4CCN(C)CC4)cc3OC)nc2N1C1CCCC1
Procedure, shortened: as §1

[12] = compound: CC[C@@H]1C(=O)N(C)c2cnc(Nc3ccc(C(=O)N[C@H]4CC[C@H](N5CCN(CC6CC6)CC5)CC4)cc3OC)nc2N1C(C)C [volasertib]
Procedure, shortened: as §1

[13] = compound: CC[C@H](C)N1C=C(C2=C(C=C(C=C21)C3=CN=C(C=C3)N4CCNCC4)C(=O)NCC5=C(C=C(NC5=O)C)C)C
Procedure, shortened: as §1

[14] = compound: CC[C@H](C)[C@@H](C(=O)N[C@@H]([C@@H](C)O)C(=O)N[C@@H](CC(C)C)C(=O)[C@]1(CO1)C)NC(=O)[C@H]([C@@H](C)CC)N(C)C(=O)C [epoxomicin]
Procedure, shortened: as §1

[15] = compound: CCn1c(C(=O)N(C2CC2)C2CC2)cc2c3c(ncn3C)c(Nc3cc(C)n(C)n3)nc21
Procedure, shortened: as §1

[16] = compound: CCn1cc(-c2ccnc3[nH]c(-c4cccc(CN(C)C)c4)cc23)c(-c2ccc(NC(=O)N(C)C)cc2)n1
Procedure, shortened: as §1

[17] = compound: CN(C)CC(=O)Nc1ccc2[nH]c(=O)c3ccccc3c2c1
Procedure, shortened: as §1

[18] = compound: CN(CCOC1=CC=C(C=C1)C[C@H]2C(=O)NC(=O)S2)C3=CC=CC=N3 (racemic) [rosiglitazone]
Procedure, shortened: as §1

[19] = compound: CN1C2=C(C3=C1C(=O)N(N=C3)CC4=CC(=CC=C4)N)SC(=C2)S(=O)C
Procedure, shortened: as §1

[20] = compound: CN1CCC(CNc2ccc3ncc(-c4cccc(OC(F)(F)F)c4)n3n2)CC1
Procedure, shortened: as §1

Measured: log2 fold change

FLT4 (UniProt P35916)
inactive: [1] 0.034 | [2] 0.06 | [3] 0.031 | [4] 0.013 | [5] -0.035 | [6] 0.087 | [7] -0.051 | [8] -0.042 | [9] -0.087 | [10] -0.019 | [11] 0.044 | [12] 0.02 | [13] 0.021 | [14] 0.066 | [15] 0.032 | [16] 0.03 | [17] -0.029 | [18] 0.044 | [19] -0.093 | [20] -0.038

FBXO7 (UniProt Q9Y3I1)
active: [16] -0.295
inactive: [1] -0.048 | [2] -0.028 | [3] 0.004 | [4] -0.014 | [5] 0.047 | [6] 0.017 | [7] -0.022 | [8] -0.026 | [9] 0.03 | [10] 0.02 | [11] 0.079 | [12] -0.198 | [13] 0.044 | [14] -0.012 | [17] 0.029 | [19] -0.022 | [20] 0.003

FASTKD2 (UniProt Q9NYY8)
inactive: [1] 0.005 | [2] -0.007 | [3] 0.028 | [4] -0.001 | [5] -0.022 | [6] 0.003 | [7] 0.067 | [8] -0.05 | [9] 0.014 | [10] 0.036 | [11] -0.037 | [12] -0.108 | [13] 0.022 | [14] 0.012 | [15] 0.007 | [16] -0.032 | [17] 0.032 | [18] 0.06 | [19] -0.047 | [20] -0.047

FBXO4 (UniProt Q9UKT5)
inactive: [1] -0.093 | [2] 0.003 | [3] 0.054 | [4] 0.024 | [5] -0.048 | [6] 0.035 | [7] 0.122 | [8] -0.047 | [9] -0.013 | [10] 0.002 | [11] -0.099 | [12] -0.189 | [13] 0.045 | [14] -0.054 | [15] -0.004 | [16] -0.123 | [17] 0.022 | [18] 0.007 | [19] -0.051 | [20] -0.093

FHL3 (UniProt Q13643)
inactive: [1] -0.025 | [2] -0.002 | [3] -0.011 | [4] 0.017 | [5] -0.037 | [6] -0.048 | [7] -0.008 | [8] -0.056 | [9] 0.01 | [10] -0.009 | [11] 0.004 | [12] 0.063 | [13] -0.021 | [14] 0.018 | [15] 0.018 | [16] 0.011 | [17] -0.053 | [18] -0.023 | [19] -0.057 | [20] -0.019

FAM8A1 (UniProt Q9UBU6)
inactive: [1] 0.033 | [2] 0.063 | [3] -0.086 | [4] -0.003 | [5] 0.088 | [6] -0.078 | [7] -0.046 | [8] -0.151 | [9] 0.097 | [10] 0.031 | [11] -0.049 | [12] 0.078 | [13] 0.04 | [14] 0.061 | [15] 0.037 | [16] -0.081 | [17] -0.036 | [18] 0.016 | [19] 0.023 | [20] -0.135

FAM83D (UniProt Q9H4H8)
inactive: [1] 0.008 | [2] -0.029 | [3] 0.028 | [4] 0.018 | [5] 0.102 | [6] 0.041 | [7] 0.097 | [8] 0.016 | [9] 0.103 | [10] 0.128 | [11] -0.097 | [12] -0.139 | [13] 0 | [14] -0.082 | [16] -0.115 | [17] 0.085 | [19] 0.006 | [20] 0.042

FAM241A (UniProt Q8N8J7)
inactive: [2] -0.012 | [3] -0.031 | [4] -0.028 | [6] -0.083 | [7] 0.015 | [8] -0.009 | [9] -0.037 | [10] 0.06 | [11] -0.026 | [12] 0.007 | [13] -0.002 | [16] 0.037 | [17] -0.093 | [19] 0.059 | [20] 0.08
active: [1] 0.536

FAM78A (UniProt Q5JUQ0)
inactive: [1] 0.008 | [2] -0.053 | [3] 0.002 | [4] -0.093 | [5] 0.043 | [6] -0.069 | [7] -0.063 | [9] 0.065 | [10] 0.042 | [11] 0.015 | [12] -0.159 | [13] -0.027 | [14] -0.02 | [15] 0.053 | [16] -0.081 | [17] -0.044 | [18] 0.057 | [19] 0.094 | [20] 0.089

FBXO44 (UniProt Q9H4M3)
inactive: [1] 0.119 | [2] -0.029 | [10] 0.038 | [13] -0.182 | [18] 0.044

FAM83A (UniProt Q86UY5)
inactive: [1] -0.042 | [2] -0.049 | [3] 0.082 | [5] 0.047 | [6] -0.005 | [7] -0.037 | [8] 0.13 | [9] 0.214 | [12] 0.101 | [13] -0.019 | [14] 0.063 | [15] -0.081 | [16] -0.041 | [17] 0.166 | [20] -0.154

FDPS (UniProt P14324)
inactive: [1] -0.061 | [2] -0.068 | [3] 0.109 | [4] -0.077 | [5] 0.068 | [6] 0.034 | [7] -0.001 | [8] -0.005 | [9] 0.156 | [10] 0.081 | [11] -0.059 | [12] -0.191 | [13] 0.075 | [14] 0.028 | [16] -0.277 | [17] 0.111 | [19] -0.034
active: [20] -0.608

FKBP7 (UniProt Q9Y680)
inactive: [1] -0.052 | [2] 0.001 | [3] -0.034 | [4] -0.074 | [5] 0.002 | [6] -0.031 | [7] -0.097 | [8] -0.025 | [9] 0.002 | [10] 0.044 | [11] 0.035 | [12] 0.021 | [13] 0.015 | [14] -0.04 | [16] 0.026 | [17] -0.042 | [19] -0.001 | [20] 0.191

FAM50A (UniProt Q14320)
inactive: [1] 0.041 | [2] -0.059 | [3] 0.019 | [4] 0.057 | [5] -0.069 | [6] 0.049 | [7] 0.035 | [8] 0.014 | [9] 0.102 | [10] 0.026 | [11] -0.158 | [13] 0.06 | [14] 0.058 | [16] 0.053 | [17] 0.029 | [19] -0.07 | [20] -0.052
active: [12] -0.258

Two entries drawn at random from those above:
FDPS (UniProt P14324)
inactive: [1] -0.061 | [2] -0.068 | [3] 0.109 | [4] -0.077 | [5] 0.068 | [6] 0.034 | [7] -0.001 | [8] -0.005 | [9] 0.156 | [10] 0.081 | [11] -0.059 | [12] -0.191 | [13] 0.075 | [14] 0.028 | [16] -0.277 | [17] 0.111 | [19] -0.034
active: [20] -0.608

FAM50A (UniProt Q14320)
inactive: [1] 0.041 | [2] -0.059 | [3] 0.019 | [4] 0.057 | [5] -0.069 | [6] 0.049 | [7] 0.035 | [8] 0.014 | [9] 0.102 | [10] 0.026 | [11] -0.158 | [13] 0.06 | [14] 0.058 | [16] 0.053 | [17] 0.029 | [19] -0.07 | [20] -0.052
active: [12] -0.258

(listing goes on)

FKRP (UniProt Q9H9S5)
inactive: [1] 0.013 | [2] 0.047 | [3] -0.033 | [5] -0.06 | [6] 0.048 | [7] 0.054 | [8] -0.056 | [9] -0.037 | [10] 0.007 | [11] 0.024 | [12] -0.079 | [13] 0.018 | [14] -0.007 | [15] 0.008 | [16] 0.084 | [17] -0.084 | [18] 0.082 | [19] 0.008 | [20] -0.067

FCF1 (UniProt Q9Y324)
inactive: [1] 0.017 | [2] -0.011 | [3] -0.114 | [4] -0.187 | [5] 0.271 | [6] -0.139 | [7] -0.167 | [8] 0.324 | [11] 0.095 | [12] 0.108 | [14] -0.003 | [16] 0.134 | [17] -0.041 | [19] 0.107 | [20] 0.219

FBXW2 (UniProt Q9UKT8)
inactive: [1] 0.131 | [2] 0.054 | [3] 0.133 | [4] -0.048 | [5] -0.143 | [6] 0.158 | [7] -0.12 | [8] 0.152 | [9] -0.032 | [10] 0.026 | [12] -0.19 | [14] 0.081 | [15] 0.097 | [17] -0.047 | [18] -0.056 | [19] 0.247

FBXO3 (UniProt Q9UK99)
inactive: [1] -0.042 | [2] -0.08 | [3] 0 | [4] -0.018 | [5] -0.043 | [6] -0.089 | [7] -0.025 | [8] -0.057 | [9] 0.049 | [10] -0.043 | [11] 0.041 | [12] 0.042 | [13] 0.052 | [14] 0.007 | [16] -0.074 | [17] -0.03 | [19] 0.023 | [20] -0.038

— the supplement of paper PMC10849652
